Test results from publication PMC3510490, “Structure of Actin-related protein 8 and its contribution to nucleosome binding” (Nucleic Acids Research, 2012).
Results are given in words; binding and its absence hold for the method and conditions named.

Protein sequences, listed by entry. Tags and fused reporters are not part of them.
UniProt Q9H981: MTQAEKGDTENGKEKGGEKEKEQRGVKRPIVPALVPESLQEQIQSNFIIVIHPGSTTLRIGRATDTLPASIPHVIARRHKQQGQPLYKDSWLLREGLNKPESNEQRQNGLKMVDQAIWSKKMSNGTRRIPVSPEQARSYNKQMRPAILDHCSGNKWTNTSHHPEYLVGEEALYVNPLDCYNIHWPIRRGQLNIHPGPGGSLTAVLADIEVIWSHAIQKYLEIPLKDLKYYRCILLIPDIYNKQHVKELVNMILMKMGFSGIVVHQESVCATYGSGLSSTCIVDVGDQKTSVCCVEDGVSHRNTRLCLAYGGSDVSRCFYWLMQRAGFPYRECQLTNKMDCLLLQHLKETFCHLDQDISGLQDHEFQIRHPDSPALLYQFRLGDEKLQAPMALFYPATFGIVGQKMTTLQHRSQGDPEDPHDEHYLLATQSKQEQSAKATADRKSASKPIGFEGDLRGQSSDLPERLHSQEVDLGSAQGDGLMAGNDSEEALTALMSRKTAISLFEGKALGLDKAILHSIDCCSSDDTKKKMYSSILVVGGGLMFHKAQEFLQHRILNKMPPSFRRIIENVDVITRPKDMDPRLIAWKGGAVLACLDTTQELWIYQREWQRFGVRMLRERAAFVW
UniProt P80428: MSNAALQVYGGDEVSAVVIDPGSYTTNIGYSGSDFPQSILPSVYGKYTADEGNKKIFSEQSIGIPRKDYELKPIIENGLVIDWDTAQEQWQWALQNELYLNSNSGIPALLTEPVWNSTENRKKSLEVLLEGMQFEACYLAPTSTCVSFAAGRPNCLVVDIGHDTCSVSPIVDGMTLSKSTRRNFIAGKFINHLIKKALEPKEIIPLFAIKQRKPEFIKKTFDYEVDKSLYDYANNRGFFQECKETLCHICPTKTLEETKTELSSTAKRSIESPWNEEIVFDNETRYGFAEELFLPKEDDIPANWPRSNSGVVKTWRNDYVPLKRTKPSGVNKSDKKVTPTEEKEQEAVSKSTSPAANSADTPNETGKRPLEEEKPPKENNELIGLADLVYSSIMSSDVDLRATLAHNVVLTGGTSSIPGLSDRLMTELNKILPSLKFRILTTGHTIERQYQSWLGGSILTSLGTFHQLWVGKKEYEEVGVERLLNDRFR

Experiments:
[1] = target: Full-length Homo sapiens Arp8 (human) (UniProt Q9H981); assay: static light scattering (SLS); Arp8, Arp4 and sub-complex I in solution; conditions not told (Supplementary Figure S8); both purified
[2] = target: Full-length Homo sapiens Arp8 (human) (UniProt Q9H981); assay: SAXS; human Arp8 at 6.15 mg/ml (full-length) or 1.5 mg/ml (truncated construct), 20°C; Porod volume and CRYSOL curves of monomer and dimer; both purified
[3] = target: Saccharomyces cerevisiae Arp4 (S. cerevisiae) (UniProt P80428); assay: static light scattering (SLS); Arp8, Arp4 and sub-complex I in solution; conditions not told (Supplementary Figure S8); both purified

Substance | binding [1] | binding [2] | binding [3]
Full-length Homo sapiens Arp8 (from UniProt Q9H981 1-624) | no binding | no binding (tested: 6.15 mg/ml) | 
Saccharomyces cerevisiae Arp4 (from UniProt P80428 1-489) |  |  | no binding
